Measured values published in the supplement of paper PMC3334620.
The full ranking holds about 33,000 sequences; the median of “E-score (-0.5 to 0.5)” is about -0.015, and the highest 2% start at about 0.3. Some of the results follow.

target: T1, Abf1 (UniProt P14164); experiment: PBM E-score (8-mer binding enrichment) (E-score (-0.5 to 0.5)); higher = stronger / more preferred TF binding; details: protein concentration: 200 nM; construct: GST-full length
T1 sequence: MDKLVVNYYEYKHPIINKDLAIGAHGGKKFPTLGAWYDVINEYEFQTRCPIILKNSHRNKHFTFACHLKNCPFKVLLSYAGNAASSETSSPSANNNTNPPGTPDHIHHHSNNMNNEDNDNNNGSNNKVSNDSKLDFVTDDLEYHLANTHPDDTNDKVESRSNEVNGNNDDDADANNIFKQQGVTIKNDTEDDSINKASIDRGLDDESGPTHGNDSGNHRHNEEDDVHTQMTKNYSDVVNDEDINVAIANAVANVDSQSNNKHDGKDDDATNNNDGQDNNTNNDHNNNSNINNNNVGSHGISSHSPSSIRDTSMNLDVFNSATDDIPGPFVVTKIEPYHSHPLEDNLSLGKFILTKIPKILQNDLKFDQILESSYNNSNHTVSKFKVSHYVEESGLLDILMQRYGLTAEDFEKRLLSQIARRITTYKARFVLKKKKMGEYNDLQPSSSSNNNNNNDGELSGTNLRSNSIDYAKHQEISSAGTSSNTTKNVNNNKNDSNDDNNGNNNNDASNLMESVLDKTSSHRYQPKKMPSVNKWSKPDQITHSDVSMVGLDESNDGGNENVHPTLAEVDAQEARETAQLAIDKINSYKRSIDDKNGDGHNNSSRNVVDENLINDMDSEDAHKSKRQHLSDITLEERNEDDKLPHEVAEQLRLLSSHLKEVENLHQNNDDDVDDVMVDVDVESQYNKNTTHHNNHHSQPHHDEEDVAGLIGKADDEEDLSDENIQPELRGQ
Description: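 Universal 'all 10-mer' protein binding microarrays (Agilent AMADID 015681) probed with GST-tagged S. cerevisiae TFs (full-length or DBD) made by in vitro transcription/translation (PURExpress), about 100-200 nM. Bound TF was detected with fluorescent anti-GST. Each ungapped 8-mer (which stands for itself and its reverse complement) is scored by the PBM enrichment score (E-score), a modified Wilcoxon-Mann-Whitney statistic from -0.5 to +0.5, computed with the Universal PBM Analysis Suite. Scale: above 0.35 generally sequence-specific binding.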

Row | Sequence | PBM E-score
1 | GGATTTTA | -0.071
2 | TCTAATCA | 0.154
3 | CATGCTTA | -0.0464
4 | AAATCCTG | -0.0759
5 | CACCGTAC | 0.385
6 | CGGAACTC | -0.119
7 | ACTATCAA | 0.188
8 | CCAGCCGA | -0.284
9 | ATGAGAAC | 0.111
10 | ATCATGAC | 0.265
11 | AATAGACC | -0.21
12 | ACCGTAAT | 0.0793
13 | GATGTCAC | 0.395
14 | ACAAGCGG | 0.0458
15 | CGGCGTCA | -0.103
16 | CTTTTTAA | 0.0715
17 | CTCTGCAG | -0.177
18 | AAGATCTT | 0.061
19 | CGTTTCCA | 0.101
20 | CTCGTTTA | 0.0984
21 | CAACTATG | -0.0379
22 | CAGGACTA | -0.0861
23 | CGATTTCA | -0.045
24 | CCCTTGAC | -0.169
25 | AAGCGGAG | -0.337

Row | Sequence | PBM E-score
26 | CCCATCTC | -0.0893
27 | CTCCGTAA | 0.156
28 | CGCGACAG | 0.0117
29 | CGCACAGA | -0.00661
30 | CGTTTCCC | -0.0977
31 | CCTACTCA | -0.21
32 | GGATAACC | 0.0683
33 | CTCGAGAG | -0.0384
34 | AAGTTATC | 0.217
35 | TGAACTAA | 0.0826
36 | AATGTACC | 0.0616
37 | AGCCCCTA | -0.456
38 | GAGGCCCA | -0.169
39 | ACAGTGAA | 0.0759
40 | GACCTGAC | -0.103
41 | AGAGGGCG | -0.228
42 | GTAGGAGA | -0.224
43 | AAAGACAG | -0.0157
44 | GGCATAAA | -0.105
45 | CCCAGTAG | 0.0529
46 | GAGATCGC | 0.164
47 | CCATGGTA | -0.0243
48 | CATCCTGA | 0.082
49 | ACGGTGAG | 0.161
50 | CCTCTGAG | -0.215

Row | Sequence | PBM E-score
51 | TACCGCAA | 0.0695
52 | CCCCCAAA | -0.276
53 | ACATCCCC | -0.0404
54 | ATGCCCCG | -0.126
55 | AGAAACGA | 0.183
56 | ACACGTTG | 0.0729
57 | TCTGCGAA | -0.0842
58 | CGAGCAAG | -0.202
59 | ACAGTTCT | -0.0751
60 | GCGATTGA | -0.0308
61 | CTACGCGC | 0.0294
62 | GCGGTGAC | 0.212
63 | TAAGGCCA | -0.104
64 | ACGTGTCA | 0.186
65 | CTACTCAA | 0.125
66 | AAGGCACC | -0.189
67 | CCGTGTAA | 0.217
68 | CCACAAGC | -0.321
69 | CAACGCCG | 0.107
70 | ACTCAGTA | 0.0588
71 | GACTCAGC | -0.124
72 | AACAGAAG | -0.0743
73 | GCGGGGCA | -0.12
74 | CAGCTTTC | -0.00915
75 | CGCCGTAC | 0.315

Row | Sequence | PBM E-score
76 | GACGACCC | -0.162
77 | GCATCTAC | -0.0213
78 | CTGCTCTC | -0.174
79 | ACTCCGAG | 0.0397
80 | ACTCAATG | -0.08
81 | ACGATTCT | 0.19
82 | GTTTTATA | 0.234
83 | GAGGGTAA | -0.123
84 | ACCTCGGG | -0.155
85 | CATTTATC | 0.222
86 | AACTCCCT | -0.105
87 | ACAAAACC | 0.145
88 | GACAGATC | 0.123
89 | ATGGGTTC | -0.0947
90 | AGGGTATA | -0.0651
91 | TCAAATAA | 0.208
92 | ATTTCTCA | 0.128
93 | CAGGTCGC | -0.00575
94 | CGGGGTAC | -0.179
95 | ACTGTAGA | -0.0363
96 | AAGCTTTA | -0.159
97 | CTCCTTTC | -0.201
98 | CAGCGTAC | -0.194
99 | GGGTCGAC | -0.0894
100 | CTCCGGCA | 0.105

Row | Sequence | PBM E-score
101 | AATGTCGC | 0.219
102 | ACACTTCC | -0.151
103 | GACCCAAC | -0.13
104 | CCAAGGCA | -0.121
105 | ACCGTGTC | 0.0295
106 | CCATCACC | -0.0178
107 | GGTCGCAA | -0.0813
108 | GCGGGGGA | -0.353
109 | ATCACTTG | 0.355
110 | ATATAGGA | -0.114
111 | GCCTATCA | 0.0867
112 | CGTATAAA | 0.417
113 | ATGTGATC | 0.18
114 | GAGACGAA | 0.0822
115 | GCGTCTCC | 0.0243
116 | CGTGTTCC | 0.0539
117 | CGAGACCC | -0.137
118 | CTTCGTTC | -0.00248
119 | CACCTGGC | -0.119
120 | GAGTAGGC | -0.173
121 | ATACCACA | -0.0671
122 | ATACGGTA | 0.319
123 | GCGGTAGC | 0.0709
124 | ATAATGAT | 0.344
125 | GAAAAAAC | 0.0978

Row | Sequence | PBM E-score
126 | CTTTCTCA | 0.243
127 | AGGTGCCA | 0.0519
128 | AGATGGAG | -0.0333
129 | CTTGATGC | -0.0892
130 | AAGAACTT | 0.0634
131 | ACCCAACC | -0.127
132 | TCGGCAGA | -0.0809
133 | CCAATCTC | 0.00749
134 | ACCTAACC | 0.0492
135 | ACATGACA | 0.256
136 | AAATCAAG | 0.157
137 | GTATCTTA | 0.171
138 | CCAAATAA | 0.157
139 | ATGGTATG | -0.0589
140 | CCAGGTGA | 0.0382
141 | ACCGCTTC | -0.12
142 | AGGGGGAC | -0.269
143 | CCGAGCAG | -0.172
144 | AACACCAG | -0.0499
145 | ATTAACCA | -0.093
146 | CCTCCGGA | -0.188
147 | GTGTTTTA | 0.128
148 | AACGAGGT | 0.0529
149 | AGTACACT | -0.173
150 | GTTCCGAA | 0.0881

Row | Sequence | PBM E-score
151 | TCAGCAGA | -0.0392
152 | AACTGGTA | -0.204
153 | TTTCAAAA | 0.161
154 | TAGGGGGA | -0.255
155 | CCCCGATC | -0.202
156 | CTATATTC | 0.037
157 | CTAATGGA | -0.0878
158 | ACGAGGCT | 0.22
159 | GGGCATGA | -0.0446
160 | GTCAAGCA | -0.207
161 | AGTTAAAT | 0.167
162 | GTCCCTCA | -0.0534
163 | CGGTCTCA | 0.0541
164 | ATCTCCAA | 0.0281
165 | CCGGAAGC | -0.0686
166 | ACAGTAAG | 0.208
167 | ATTCAACC | -0.0361
168 | TAAGTGGA | -0.0224
169 | AGTCGCTG | -0.00097
170 | TAGCGGGA | -0.182
171 | GCTACAAC | -0.0701
172 | CTACAATA | -0.0985

A run of entries of the results above:
Row | Sequence | PBM E-score
127 | AGGTGCCA | 0.0519
128 | AGATGGAG | -0.0333
129 | CTTGATGC | -0.0892
130 | AAGAACTT | 0.0634
131 | ACCCAACC | -0.127
132 | TCGGCAGA | -0.0809
133 | CCAATCTC | 0.00749
134 | ACCTAACC | 0.0492
135 | ACATGACA | 0.256
136 | AAATCAAG | 0.157
137 | GTATCTTA | 0.171
138 | CCAAATAA | 0.157
139 | ATGGTATG | -0.0589
140 | CCAGGTGA | 0.0382
141 | ACCGCTTC | -0.12
142 | AGGGGGAC | -0.269
143 | CCGAGCAG | -0.172
144 | AACACCAG | -0.0499
145 | ATTAACCA | -0.093
146 | CCTCCGGA | -0.188
147 | GTGTTTTA | 0.128
148 | AACGAGGT | 0.0529
149 | AGTACACT | -0.173
150 | GTTCCGAA | 0.0881
151 | TCAGCAGA | -0.0392
152 | AACTGGTA | -0.204
153 | TTTCAAAA | 0.161
154 | TAGGGGGA | -0.255
155 | CCCCGATC | -0.202
156 | CTATATTC | 0.037
157 | CTAATGGA | -0.0878
158 | ACGAGGCT | 0.22
159 | GGGCATGA | -0.0446
160 | GTCAAGCA | -0.207
161 | AGTTAAAT | 0.167
162 | GTCCCTCA | -0.0534
163 | CGGTCTCA | 0.0541
164 | ATCTCCAA | 0.0281
165 | CCGGAAGC | -0.0686
166 | ACAGTAAG | 0.208
167 | ATTCAACC | -0.0361
168 | TAAGTGGA | -0.0224
169 | AGTCGCTG | -0.00097
170 | TAGCGGGA | -0.182
171 | GCTACAAC | -0.0701
